The record followed here is paper PMC6642263.

These are yes or no findings as the source states them, for the method shown. Some binding calls cover weakened binding; strength is not graded here.

The target of assay [1] is His-HDAC2 (UniProt Q92769). Briefly: pull-down; His pull-down: His-HDAC1 or His-HDAC2 (beads bound, from E. coli) incubated overnight with GST-p53 (eluted, from E. coli), without or with FLAG-ZEB1 (FLAG peptide eluted, from 293T cells); both purified.
The target of assay [2] is His-HDAC1 (UniProt Q13547). The assay is described as above.

For GST-p53 (from UniProt P04637 1-393), the binding entry in assay [1] and in assay [2] was “binds weakly” in each case.
